# Some of the results follow.
# Chains of the proteins cited; added tags and fusions are not shown. Lines headed by an entry give the natural chain unless they say otherwise; changes in a name come on top.
# UniProt Q6P2C8: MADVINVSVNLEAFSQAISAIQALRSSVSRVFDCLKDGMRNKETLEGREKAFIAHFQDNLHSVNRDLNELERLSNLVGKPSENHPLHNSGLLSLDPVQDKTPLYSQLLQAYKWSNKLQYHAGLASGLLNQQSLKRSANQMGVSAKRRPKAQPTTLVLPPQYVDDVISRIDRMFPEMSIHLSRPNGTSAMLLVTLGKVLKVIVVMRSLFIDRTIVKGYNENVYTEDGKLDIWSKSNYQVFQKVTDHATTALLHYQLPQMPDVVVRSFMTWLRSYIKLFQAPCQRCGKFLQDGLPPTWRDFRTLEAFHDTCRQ
# UniProt Q14680: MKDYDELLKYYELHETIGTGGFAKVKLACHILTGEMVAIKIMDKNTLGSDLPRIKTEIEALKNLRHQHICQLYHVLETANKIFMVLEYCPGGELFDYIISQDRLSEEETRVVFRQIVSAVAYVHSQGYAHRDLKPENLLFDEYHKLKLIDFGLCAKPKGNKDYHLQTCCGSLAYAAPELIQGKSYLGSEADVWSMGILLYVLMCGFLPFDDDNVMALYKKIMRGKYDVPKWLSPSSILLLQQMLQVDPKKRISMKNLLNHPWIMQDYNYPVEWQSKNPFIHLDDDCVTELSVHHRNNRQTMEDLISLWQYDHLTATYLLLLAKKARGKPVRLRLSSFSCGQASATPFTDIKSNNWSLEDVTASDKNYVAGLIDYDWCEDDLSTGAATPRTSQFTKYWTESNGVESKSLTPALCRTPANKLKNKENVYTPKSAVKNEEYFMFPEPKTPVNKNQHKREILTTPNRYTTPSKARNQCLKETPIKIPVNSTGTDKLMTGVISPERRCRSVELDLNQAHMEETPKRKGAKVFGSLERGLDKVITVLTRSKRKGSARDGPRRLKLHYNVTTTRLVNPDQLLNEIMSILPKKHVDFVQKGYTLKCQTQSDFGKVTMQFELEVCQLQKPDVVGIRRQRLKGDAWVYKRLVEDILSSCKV
# UniProt Q71SY5: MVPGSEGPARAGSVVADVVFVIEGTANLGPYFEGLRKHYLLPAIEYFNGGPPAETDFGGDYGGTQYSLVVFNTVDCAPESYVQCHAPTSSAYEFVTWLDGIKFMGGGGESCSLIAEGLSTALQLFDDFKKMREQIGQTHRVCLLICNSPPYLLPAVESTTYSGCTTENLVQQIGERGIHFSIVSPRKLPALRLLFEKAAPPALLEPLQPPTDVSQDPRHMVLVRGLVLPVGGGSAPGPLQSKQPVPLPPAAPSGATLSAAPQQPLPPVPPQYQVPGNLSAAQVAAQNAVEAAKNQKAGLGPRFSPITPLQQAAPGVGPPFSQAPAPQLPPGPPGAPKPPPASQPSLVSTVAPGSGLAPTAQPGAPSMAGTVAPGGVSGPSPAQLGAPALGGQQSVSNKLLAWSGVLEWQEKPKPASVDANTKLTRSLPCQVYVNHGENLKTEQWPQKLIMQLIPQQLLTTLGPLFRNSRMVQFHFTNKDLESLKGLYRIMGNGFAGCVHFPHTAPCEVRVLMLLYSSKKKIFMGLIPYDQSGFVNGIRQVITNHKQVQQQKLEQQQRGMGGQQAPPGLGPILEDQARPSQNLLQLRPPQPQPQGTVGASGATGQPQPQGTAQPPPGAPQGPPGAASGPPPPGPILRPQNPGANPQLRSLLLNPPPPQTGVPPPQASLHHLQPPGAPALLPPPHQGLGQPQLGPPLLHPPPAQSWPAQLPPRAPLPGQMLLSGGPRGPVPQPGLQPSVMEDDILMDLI
# UniProt Q9UQ53: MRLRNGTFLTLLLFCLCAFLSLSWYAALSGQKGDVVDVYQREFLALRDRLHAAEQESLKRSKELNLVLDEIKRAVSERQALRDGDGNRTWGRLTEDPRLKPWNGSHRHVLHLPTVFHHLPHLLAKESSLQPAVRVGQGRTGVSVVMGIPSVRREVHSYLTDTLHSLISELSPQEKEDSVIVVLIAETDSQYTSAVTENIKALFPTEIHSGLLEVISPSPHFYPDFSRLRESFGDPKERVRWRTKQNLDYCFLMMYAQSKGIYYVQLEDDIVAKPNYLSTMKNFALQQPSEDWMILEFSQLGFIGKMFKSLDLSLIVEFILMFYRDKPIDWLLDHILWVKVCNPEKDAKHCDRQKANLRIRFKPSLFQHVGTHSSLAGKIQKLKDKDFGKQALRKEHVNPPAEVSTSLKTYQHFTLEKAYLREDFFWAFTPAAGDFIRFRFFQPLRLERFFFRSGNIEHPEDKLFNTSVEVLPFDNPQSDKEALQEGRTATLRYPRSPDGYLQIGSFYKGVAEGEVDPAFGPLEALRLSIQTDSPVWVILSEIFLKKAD
# UniProt P21741: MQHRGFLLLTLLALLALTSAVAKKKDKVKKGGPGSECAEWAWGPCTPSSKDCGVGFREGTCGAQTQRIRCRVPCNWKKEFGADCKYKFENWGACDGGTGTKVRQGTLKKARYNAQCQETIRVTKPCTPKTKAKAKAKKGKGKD
# UniProt P33993, whole entry, looked up: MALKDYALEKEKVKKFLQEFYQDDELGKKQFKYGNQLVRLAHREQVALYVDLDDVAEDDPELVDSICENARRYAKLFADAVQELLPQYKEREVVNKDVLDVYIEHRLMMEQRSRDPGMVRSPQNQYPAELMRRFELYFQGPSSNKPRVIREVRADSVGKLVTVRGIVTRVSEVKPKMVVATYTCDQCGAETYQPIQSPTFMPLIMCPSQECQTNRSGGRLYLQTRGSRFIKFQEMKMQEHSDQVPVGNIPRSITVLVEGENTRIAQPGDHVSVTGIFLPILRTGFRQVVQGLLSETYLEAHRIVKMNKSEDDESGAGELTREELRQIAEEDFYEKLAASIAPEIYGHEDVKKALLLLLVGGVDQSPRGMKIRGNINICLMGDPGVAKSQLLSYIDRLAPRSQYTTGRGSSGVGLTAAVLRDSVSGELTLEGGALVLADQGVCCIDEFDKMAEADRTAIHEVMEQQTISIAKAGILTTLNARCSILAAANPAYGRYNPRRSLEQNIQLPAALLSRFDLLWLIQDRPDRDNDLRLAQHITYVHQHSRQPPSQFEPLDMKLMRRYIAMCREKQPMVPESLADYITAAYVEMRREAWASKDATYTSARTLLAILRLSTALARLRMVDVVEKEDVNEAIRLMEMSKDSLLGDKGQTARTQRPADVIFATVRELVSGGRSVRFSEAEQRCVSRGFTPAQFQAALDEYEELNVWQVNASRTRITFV
# UniProt Q86YT6, whole entry, looked up: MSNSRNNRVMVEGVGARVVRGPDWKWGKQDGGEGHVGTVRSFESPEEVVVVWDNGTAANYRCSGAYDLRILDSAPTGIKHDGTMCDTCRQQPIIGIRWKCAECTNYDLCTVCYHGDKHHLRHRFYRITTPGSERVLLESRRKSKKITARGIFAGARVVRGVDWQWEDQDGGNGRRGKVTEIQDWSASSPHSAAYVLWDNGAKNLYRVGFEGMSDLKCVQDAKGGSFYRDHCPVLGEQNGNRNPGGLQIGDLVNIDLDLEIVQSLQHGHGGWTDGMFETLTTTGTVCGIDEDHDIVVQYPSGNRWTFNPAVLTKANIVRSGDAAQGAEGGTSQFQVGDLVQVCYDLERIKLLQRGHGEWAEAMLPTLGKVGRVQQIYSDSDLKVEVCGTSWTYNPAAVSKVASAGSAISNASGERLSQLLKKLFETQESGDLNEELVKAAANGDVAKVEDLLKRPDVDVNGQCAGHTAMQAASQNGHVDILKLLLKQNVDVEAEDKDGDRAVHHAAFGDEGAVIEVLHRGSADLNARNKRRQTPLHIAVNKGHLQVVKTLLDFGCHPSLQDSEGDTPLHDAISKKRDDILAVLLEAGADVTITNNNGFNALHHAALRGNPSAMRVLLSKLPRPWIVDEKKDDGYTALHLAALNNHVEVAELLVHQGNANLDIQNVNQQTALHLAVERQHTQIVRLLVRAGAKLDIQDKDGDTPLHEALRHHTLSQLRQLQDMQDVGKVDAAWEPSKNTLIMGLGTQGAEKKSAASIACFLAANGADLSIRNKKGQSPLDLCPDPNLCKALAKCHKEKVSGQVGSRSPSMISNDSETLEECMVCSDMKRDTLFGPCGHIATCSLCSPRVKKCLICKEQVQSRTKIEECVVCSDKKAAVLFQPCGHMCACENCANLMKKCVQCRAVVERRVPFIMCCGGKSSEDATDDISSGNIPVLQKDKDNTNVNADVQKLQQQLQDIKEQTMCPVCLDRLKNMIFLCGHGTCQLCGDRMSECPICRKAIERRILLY
# UniProt Q9Y4C4: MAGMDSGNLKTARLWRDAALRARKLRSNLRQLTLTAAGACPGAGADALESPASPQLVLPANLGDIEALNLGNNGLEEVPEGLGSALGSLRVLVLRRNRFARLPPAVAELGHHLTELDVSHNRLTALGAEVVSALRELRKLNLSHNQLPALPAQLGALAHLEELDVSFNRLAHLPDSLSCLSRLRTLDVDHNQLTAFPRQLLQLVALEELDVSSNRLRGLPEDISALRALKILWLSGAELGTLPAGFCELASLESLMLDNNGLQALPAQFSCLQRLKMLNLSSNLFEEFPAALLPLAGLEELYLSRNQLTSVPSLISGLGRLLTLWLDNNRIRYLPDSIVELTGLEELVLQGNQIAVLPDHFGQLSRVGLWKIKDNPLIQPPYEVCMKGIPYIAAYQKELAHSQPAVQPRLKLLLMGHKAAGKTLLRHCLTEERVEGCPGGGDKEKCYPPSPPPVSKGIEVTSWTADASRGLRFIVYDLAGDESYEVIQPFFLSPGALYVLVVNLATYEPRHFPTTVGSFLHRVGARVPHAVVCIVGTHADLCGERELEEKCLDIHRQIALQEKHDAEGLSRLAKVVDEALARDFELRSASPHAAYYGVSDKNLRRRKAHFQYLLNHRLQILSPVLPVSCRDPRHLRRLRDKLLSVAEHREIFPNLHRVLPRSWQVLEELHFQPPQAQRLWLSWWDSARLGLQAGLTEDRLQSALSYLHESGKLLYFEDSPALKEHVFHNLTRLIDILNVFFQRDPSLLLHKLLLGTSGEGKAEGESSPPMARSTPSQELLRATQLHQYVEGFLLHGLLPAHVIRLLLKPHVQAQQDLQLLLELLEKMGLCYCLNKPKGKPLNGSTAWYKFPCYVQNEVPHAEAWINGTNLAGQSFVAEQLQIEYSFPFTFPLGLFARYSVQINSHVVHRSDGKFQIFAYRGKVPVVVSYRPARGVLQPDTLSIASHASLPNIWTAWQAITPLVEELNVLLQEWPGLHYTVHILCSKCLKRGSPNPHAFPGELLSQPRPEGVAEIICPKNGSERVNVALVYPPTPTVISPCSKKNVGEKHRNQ
# UniProt Q9H1A3: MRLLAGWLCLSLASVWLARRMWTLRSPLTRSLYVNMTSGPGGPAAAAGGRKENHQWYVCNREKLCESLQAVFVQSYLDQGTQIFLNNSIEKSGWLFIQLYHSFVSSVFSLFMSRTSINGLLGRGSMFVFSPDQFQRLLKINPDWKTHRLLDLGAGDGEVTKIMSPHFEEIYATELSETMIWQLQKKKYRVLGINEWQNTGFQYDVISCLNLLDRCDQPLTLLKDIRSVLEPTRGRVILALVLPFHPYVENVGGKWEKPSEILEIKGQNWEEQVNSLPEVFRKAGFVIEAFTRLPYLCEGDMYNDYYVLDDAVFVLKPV
# UniProt Q9BUT9: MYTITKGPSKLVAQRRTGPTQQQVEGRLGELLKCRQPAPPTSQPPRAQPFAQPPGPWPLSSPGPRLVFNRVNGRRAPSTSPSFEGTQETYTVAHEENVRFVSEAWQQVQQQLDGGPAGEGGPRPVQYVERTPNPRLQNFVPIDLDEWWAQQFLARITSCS
# UniProt Q9ULC4: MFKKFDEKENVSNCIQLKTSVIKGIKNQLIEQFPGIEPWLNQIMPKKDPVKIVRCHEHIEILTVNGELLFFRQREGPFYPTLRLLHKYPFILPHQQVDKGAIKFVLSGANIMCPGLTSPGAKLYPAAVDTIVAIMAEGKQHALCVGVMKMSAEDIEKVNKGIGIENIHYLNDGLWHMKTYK
# UniProt O14770: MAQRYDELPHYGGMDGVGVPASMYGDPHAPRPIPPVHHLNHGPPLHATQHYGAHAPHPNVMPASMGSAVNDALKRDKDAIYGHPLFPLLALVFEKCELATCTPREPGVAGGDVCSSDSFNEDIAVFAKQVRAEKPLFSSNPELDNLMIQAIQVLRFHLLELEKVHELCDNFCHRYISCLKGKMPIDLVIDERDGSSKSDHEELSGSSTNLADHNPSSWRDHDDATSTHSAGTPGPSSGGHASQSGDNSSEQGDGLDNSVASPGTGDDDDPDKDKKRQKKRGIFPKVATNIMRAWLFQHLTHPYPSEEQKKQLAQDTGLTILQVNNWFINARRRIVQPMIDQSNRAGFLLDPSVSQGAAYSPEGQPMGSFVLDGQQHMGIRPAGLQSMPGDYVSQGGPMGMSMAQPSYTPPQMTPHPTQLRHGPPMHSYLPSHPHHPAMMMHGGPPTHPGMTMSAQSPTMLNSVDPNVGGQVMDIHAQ
# UniProt Q8TCB7: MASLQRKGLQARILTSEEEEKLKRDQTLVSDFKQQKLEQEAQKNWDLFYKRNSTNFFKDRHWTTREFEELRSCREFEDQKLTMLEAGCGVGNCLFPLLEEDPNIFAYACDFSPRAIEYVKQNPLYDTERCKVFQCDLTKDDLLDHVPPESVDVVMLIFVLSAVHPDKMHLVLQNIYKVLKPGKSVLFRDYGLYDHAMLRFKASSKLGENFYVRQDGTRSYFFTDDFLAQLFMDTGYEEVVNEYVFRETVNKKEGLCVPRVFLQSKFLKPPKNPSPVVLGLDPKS
# How the values were obtained:
# Assay in all cases: log2 fold change, soluble protein after heating vs DMSO (PISA); higher = thermal stabilisation; K562 cells, 10 uM, 30 min; active = over 0.2 and 3.5 SD of the protein, either way, in both replicates (recomputed)
# bafetinib = compound: Cc1ccc(NC(=O)c2ccc(CN3CC[C@H](N(C)C)C3)c(C(F)(F)F)c2)cc1Nc1nccc(-c2cncnc2)n1 [bafetinib]
# In short: (§1)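 Quantification of soluble protein used TMTpro 16plex LC-MS/MS, with channel sums equalised. Samples were the supernatant after 21,000xg for 90 min of pooled aliquots from K562 cells (2×10^6 cells/mL) treated with 10 μM compound for 30 min, heated for 3 min over 48°C-58°C, and extracted in PBS with 0.5% NP-40 at 4°C. Values, from duplicates, describe thermal stability against control samples on a log2 fold-change scale.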
# [1] = compound: Cc1cccc(CC(=O)N2CCc3c2ccc(-c2cn(C)c4ncnc(N)c24)c3F)n1
# In short: as §1
# nilotinib = compound: Cc1cn(-c2cc(NC(=O)c3ccc(C)c(Nc4nccc(-c5cccnc5)n4)c3)cc(C(F)(F)F)c2)cn1 [nilotinib]
# In short: as §1
# [2] = compound: Cc1nc(Nc2n[nH]c3c2CN(C(=O)N[C@H](CN(C)C)c2ccccc2)C3(C)C)c2sccc2n1
# In short: as §1
# dasatinib = compound: Cc1nc(Nc2ncc(C(=O)Nc3c(C)cccc3Cl)s2)cc(N2CCN(CCO)CC2)n1 [dasatinib]
# In short: as §1
# [3] = compound: Cc1ncc(-c2ccnc(Nc3ccc(S(C)(=O)=O)cc3)n2)n1C(C)C
# In short: as §1
# [4] = compound: Cn1cc(-c2ccc3c(c2)CCN3C(=O)Cc2cccc(C(F)(F)F)c2)c2c(N)ncnc21
# In short: as §1
# mubritinib = compound: FC(F)(F)c1ccc(/C=C/c2nc(COc3ccc(CCCCn4ccnn4)cc3)co2)cc1 [mubritinib]
# In short: as §1
# [5] = compound: NC(=O)Nc1cc(-c2cccc(F)c2)sc1C(=O)N[C@H]1CCCNC1
# In short: as §1
# [6] = compound: NC(=O)c1cnc(N[C@@H]2CCCC[C@@H]2N)nc1Nc1cccc(-n2nccn2)c1
# In short: as §1
# [7] = compound: NC1(c2ccc(-c3nc4ccn5c(=O)[nH]nc5c4cc3-c3ccccc3)cc2)CCC1
# In short: as §1
# entinostat = compound: Nc1ccccc1NC(=O)c1ccc(CNC(=O)OCc2cccnc2)cc1 [entinostat]
# In short: as §1
# vorinostat = compound: O=C(CCCCCCC(=O)Nc1ccccc1)NO [vorinostat]
# In short: as §1
# silmitasertib = compound: O=C(O)c1ccc2c(c1)nc(Nc1cccc(Cl)c1)c1ccncc12 [silmitasertib]
# In short: as §1
# [8] = compound: O=C1NC(=O)C(c2cnc3ccccn23)=C1c1cn2c3c(cc(F)cc13)CN(C(=O)N1CCCCC1)CC2
# In short: as §1
# tipifarnib = compound: Cn1cncc1[C@@](N)(c1ccc(Cl)cc1)c1ccc2c(c1)c(-c1cccc(Cl)c1)cc(=O)n2C [tipifarnib]
# In short: as §1
# citarinostat = compound: O=C(CCCCCCNC(=O)c1cnc(N(c2ccccc2)c2ccccc2Cl)nc1)NO [citarinostat]
# In short: as §1
# [9] = compound: c1cc(OCCN2CCCCC2)cc(-c2n[nH]c3ccc(-c4nnc[nH]4)cc23)c1
# In short: as §1
# [10] = compound: NCC(=O)Nc1ccc(-n2nc(C(F)(F)F)cc2-c2ccc3c(ccc4ccccc43)c2)cc1
# In short: as §1
# [11] = compound: Cn1cc(-c2ccc3nnc(C(F)(F)c4ccc5ncccc5c4)n3n2)cn1
# In short: as §1
Target,log2 fold change (bafetinib),log2 fold change [1],log2 fold change (nilotinib),log2 fold change [2],log2 fold change (dasatinib),log2 fold change [3],log2 fold change [4],log2 fold change (mubritinib),log2 fold change [5],log2 fold change [6],log2 fold change [7],log2 fold change (entinostat),log2 fold change (vorinostat),log2 fold change (silmitasertib),log2 fold change [8],log2 fold change (tipifarnib),log2 fold change (citarinostat),log2 fold change [9],log2 fold change [10],log2 fold change [11]
MED27 (UniProt Q6P2C8),inactive: 0.04,inactive: -0.048,inactive: 0.046,inactive: -0.015,inactive: -0.127,inactive: 0.109,inactive: -0.075,inactive: -0.07,inactive: -0.033,inactive: -0.331,inactive: -0.028,inactive: 0.131,inactive: -0.016,inactive: -0.057,inactive: 0.019,–,–,–,–,–
MELK (UniProt Q14680),inactive: -0.06,inactive: 0.086,inactive: 0.033,active: -1.04,inactive: -0.149,inactive: 0.14,inactive: -0.092,–,inactive: -0.384,inactive: -0.128,–,inactive: -0.052,inactive: 0.062,–,inactive: -0.016,inactive: 0.097,inactive: -0.001,inactive: -0.366,–,–
MFSD11 (UniProt O43934),inactive: -0.047,inactive: -0.032,inactive: -0.038,inactive: 0.046,inactive: -0.004,inactive: -0.119,inactive: 0.17,inactive: 0.063,inactive: 0.035,inactive: 0.038,inactive: -0.202,inactive: -0.112,inactive: -0.028,inactive: 0.044,inactive: -0.04,inactive: -0.047,inactive: -0.096,inactive: 0.063,inactive: 0.002,–
MED19 (UniProt A0JLT2),inactive: 0.061,inactive: -0.041,inactive: 0.017,inactive: 0.071,–,inactive: -0.142,–,inactive: -0.232,inactive: 0.085,–,inactive: 0.207,inactive: -0.103,inactive: 0.394,inactive: -0.02,inactive: 0.276,–,inactive: -0.04,inactive: -0.053,inactive: 0.151,inactive: -0.112
MED25 isoform 3 (UniProt Q71SY5),inactive: 0.09,inactive: 0.217,inactive: -0.013,inactive: 0.003,inactive: -0.049,inactive: -0.09,inactive: -0.071,inactive: -0.308,inactive: -0.016,inactive: -0.021,active: -0.591,inactive: 0.065,inactive: -0.349,inactive: 0.174,–,inactive: 0.054,inactive: 0.052,inactive: -0.148,inactive: 0.064,inactive: 0.076
MGAT4B isoform 3 (UniProt Q9UQ53),inactive: -0.011,inactive: -0.228,inactive: -0.11,inactive: 0.009,inactive: 0.004,inactive: -0.097,inactive: -0.079,inactive: -0.178,inactive: -0.085,inactive: 0.027,inactive: -0.025,inactive: 0.012,inactive: 0,inactive: 0.262,inactive: -0.069,inactive: 0.163,inactive: -0.058,inactive: -0.003,inactive: 0.032,inactive: -0.025
MDK (UniProt P21741),inactive: 0.232,inactive: -0.062,inactive: 0.175,inactive: -0.012,inactive: 0.252,inactive: 0.112,inactive: -0.133,inactive: -0.049,inactive: -0.279,inactive: 0.079,inactive: 0.415,inactive: -0.148,inactive: 0.107,inactive: 0.13,–,inactive: 0.015,–,–,–,–
MCM7 (UniProt P33993),inactive: -0.035,inactive: 0.018,inactive: -0.017,inactive: -0.014,inactive: -0.066,inactive: -0.042,inactive: 0.021,inactive: 0.036,inactive: 0.009,inactive: -0.015,inactive: -0.107,inactive: 0.02,inactive: 0.029,inactive: -0.013,inactive: -0.006,inactive: -0.021,inactive: 0.016,inactive: -0.015,inactive: -0.006,inactive: 0.049
MFSD6 (UniProt Q6ZSS7),inactive: -0.074,inactive: -0.067,inactive: -0.004,inactive: -0.049,inactive: -0.052,inactive: -0.074,inactive: 0.052,inactive: -0.165,inactive: -0.021,inactive: 0.023,inactive: 0.103,inactive: 0.143,inactive: 0.06,inactive: 0.08,inactive: 0.022,–,–,–,inactive: 0.069,–
MGRN1 isoform 2 (UniProt O60291),inactive: -0.07,inactive: -0.227,–,–,–,–,inactive: -0.149,–,–,inactive: 0.11,–,–,inactive: -0.024,–,–,inactive: 0.2,–,–,–,inactive: 0.027
MIB1 (UniProt Q86YT6),inactive: 0.026,inactive: 0.16,–,–,–,–,inactive: -0.034,inactive: -0.005,inactive: -0.003,inactive: -0.019,inactive: 0.005,inactive: -0.046,inactive: 0.221,inactive: 0.06,inactive: -0.006,–,inactive: 0.006,inactive: -0.037,inactive: 0.005,inactive: -0.022
MFHAS1 (UniProt Q9Y4C4),inactive: 0.155,inactive: -0.09,–,–,inactive: 0.012,–,inactive: 0.191,inactive: 0.074,–,inactive: 0.013,inactive: 0.014,–,inactive: 0.004,inactive: 0.029,–,–,–,–,inactive: 0.024,inactive: 0.041
METTL25 (UniProt Q8N6Q8),inactive: -0.054,inactive: -0.075,inactive: -0.162,inactive: -0.007,inactive: 0.133,inactive: -0.09,inactive: 0.062,inactive: 0.085,inactive: -0.112,inactive: 0.14,inactive: -0.121,inactive: -0.138,inactive: -0.03,inactive: 0.077,inactive: -0.207,inactive: 0.143,–,–,inactive: -0.157,–
MFSD8 (UniProt Q8NHS3),inactive: -0.006,inactive: -0.12,–,–,inactive: 0.061,–,inactive: -0.007,inactive: -0.002,–,inactive: 0.02,inactive: -0.115,–,inactive: -0.008,inactive: 0.069,inactive: -0.007,inactive: -0.042,inactive: -0.003,inactive: -0.129,inactive: -0.076,inactive: 0.017
MCM6 (UniProt Q14566),inactive: -0.048,inactive: 0.022,inactive: -0.053,inactive: -0.015,inactive: -0.063,inactive: -0.052,inactive: 0.045,inactive: 0.056,inactive: -0.038,inactive: -0.053,inactive: -0.075,inactive: 0,inactive: 0.016,inactive: 0.006,inactive: -0.05,inactive: -0.031,inactive: 0.036,inactive: -0.022,inactive: -0.032,inactive: 0.07
METTL9 (UniProt Q9H1A3),inactive: -0.137,inactive: 0.032,–,–,inactive: -0.239,–,inactive: -0.18,inactive: 0.172,–,inactive: 0.079,inactive: -0.132,–,inactive: -0.032,inactive: 0.104,–,inactive: 0.057,–,–,inactive: -0.029,inactive: -0.083
MCRIP2 (UniProt Q9BUT9),inactive: 0.107,inactive: 0.016,–,–,inactive: 0.08,–,inactive: 0.033,–,inactive: -0.006,–,–,inactive: 0.015,inactive: 0.009,–,inactive: -0.029,inactive: 0.088,inactive: 0.067,inactive: -0.05,–,inactive: 0.028
MED28 (UniProt Q9H204),inactive: 0.148,inactive: 0.016,inactive: 0.064,inactive: 0.012,inactive: 0.01,inactive: -0.09,inactive: 0.049,inactive: 0.027,inactive: -0.041,inactive: -0.021,inactive: -0.027,inactive: -0.019,inactive: -0.086,inactive: 0.014,–,inactive: 0,inactive: -0.029,inactive: 0.019,–,inactive: 0.068
MCTS1 isoform 3 (UniProt Q9ULC4),inactive: -0.006,inactive: -0.008,inactive: 0.004,inactive: 0.029,inactive: 0.035,inactive: -0.006,inactive: 0.034,inactive: -0.015,inactive: 0.006,inactive: 0.03,inactive: 0.049,inactive: -0.007,inactive: 0.011,inactive: 0.003,inactive: -0.022,inactive: 0.015,inactive: 0.034,inactive: -0.017,inactive: 0.02,inactive: -0.038
MEIS2 (UniProt O14770),inactive: 0.007,inactive: -0.004,–,–,inactive: -0.229,–,inactive: 0.006,–,–,inactive: -0.048,–,–,inactive: 0.019,–,–,inactive: -0.094,–,–,–,inactive: -0.059
METTL6 (UniProt Q8TCB7),inactive: 0.057,inactive: 0.041,–,–,inactive: 0.052,–,inactive: 0.011,inactive: 0.031,inactive: -0.249,inactive: 0.039,inactive: -0.337,inactive: -0.047,inactive: -0.029,inactive: 0.099,inactive: 0.144,inactive: 0.114,–,–,–,–

# Some of the entries so far, bar-delimited.
Target | log2 fold change (bafetinib) | log2 fold change [1] | log2 fold change (nilotinib) | log2 fold change [2] | log2 fold change (dasatinib) | log2 fold change [3] | log2 fold change [4] | log2 fold change (mubritinib) | log2 fold change [5] | log2 fold change [6] | log2 fold change [7] | log2 fold change (entinostat) | log2 fold change (vorinostat) | log2 fold change (silmitasertib) | log2 fold change [8] | log2 fold change (tipifarnib) | log2 fold change (citarinostat) | log2 fold change [9] | log2 fold change [10] | log2 fold change [11]
MFSD11 (UniProt O43934) | inactive: -0.047 | inactive: -0.032 | inactive: -0.038 | inactive: 0.046 | inactive: -0.004 | inactive: -0.119 | inactive: 0.17 | inactive: 0.063 | inactive: 0.035 | inactive: 0.038 | inactive: -0.202 | inactive: -0.112 | inactive: -0.028 | inactive: 0.044 | inactive: -0.04 | inactive: -0.047 | inactive: -0.096 | inactive: 0.063 | inactive: 0.002 | –
MED19 (UniProt A0JLT2) | inactive: 0.061 | inactive: -0.041 | inactive: 0.017 | inactive: 0.071 | – | inactive: -0.142 | – | inactive: -0.232 | inactive: 0.085 | – | inactive: 0.207 | inactive: -0.103 | inactive: 0.394 | inactive: -0.02 | inactive: 0.276 | – | inactive: -0.04 | inactive: -0.053 | inactive: 0.151 | inactive: -0.112
MED25 isoform 3 (UniProt Q71SY5) | inactive: 0.09 | inactive: 0.217 | inactive: -0.013 | inactive: 0.003 | inactive: -0.049 | inactive: -0.09 | inactive: -0.071 | inactive: -0.308 | inactive: -0.016 | inactive: -0.021 | active: -0.591 | inactive: 0.065 | inactive: -0.349 | inactive: 0.174 | – | inactive: 0.054 | inactive: 0.052 | inactive: -0.148 | inactive: 0.064 | inactive: 0.076
MGAT4B isoform 3 (UniProt Q9UQ53) | inactive: -0.011 | inactive: -0.228 | inactive: -0.11 | inactive: 0.009 | inactive: 0.004 | inactive: -0.097 | inactive: -0.079 | inactive: -0.178 | inactive: -0.085 | inactive: 0.027 | inactive: -0.025 | inactive: 0.012 | inactive: 0 | inactive: 0.262 | inactive: -0.069 | inactive: 0.163 | inactive: -0.058 | inactive: -0.003 | inactive: 0.032 | inactive: -0.025
